Source: the supplement of paper PMC11732987, “Enantioselective OTUD7B fragment discovery through chemoproteomics screening and high-throughput optimisation” (Communications Chemistry, 2025)
This is one part of the list. The data scatter; read single values as rough.

Protein sequences, listed by entry. Tags and fused reporters are not part of them. Lines headed by an entry give the natural chain unless they say otherwise; changes in a name come on top. Residues count along the entry.
UniProt P49792, whole entry, looked up: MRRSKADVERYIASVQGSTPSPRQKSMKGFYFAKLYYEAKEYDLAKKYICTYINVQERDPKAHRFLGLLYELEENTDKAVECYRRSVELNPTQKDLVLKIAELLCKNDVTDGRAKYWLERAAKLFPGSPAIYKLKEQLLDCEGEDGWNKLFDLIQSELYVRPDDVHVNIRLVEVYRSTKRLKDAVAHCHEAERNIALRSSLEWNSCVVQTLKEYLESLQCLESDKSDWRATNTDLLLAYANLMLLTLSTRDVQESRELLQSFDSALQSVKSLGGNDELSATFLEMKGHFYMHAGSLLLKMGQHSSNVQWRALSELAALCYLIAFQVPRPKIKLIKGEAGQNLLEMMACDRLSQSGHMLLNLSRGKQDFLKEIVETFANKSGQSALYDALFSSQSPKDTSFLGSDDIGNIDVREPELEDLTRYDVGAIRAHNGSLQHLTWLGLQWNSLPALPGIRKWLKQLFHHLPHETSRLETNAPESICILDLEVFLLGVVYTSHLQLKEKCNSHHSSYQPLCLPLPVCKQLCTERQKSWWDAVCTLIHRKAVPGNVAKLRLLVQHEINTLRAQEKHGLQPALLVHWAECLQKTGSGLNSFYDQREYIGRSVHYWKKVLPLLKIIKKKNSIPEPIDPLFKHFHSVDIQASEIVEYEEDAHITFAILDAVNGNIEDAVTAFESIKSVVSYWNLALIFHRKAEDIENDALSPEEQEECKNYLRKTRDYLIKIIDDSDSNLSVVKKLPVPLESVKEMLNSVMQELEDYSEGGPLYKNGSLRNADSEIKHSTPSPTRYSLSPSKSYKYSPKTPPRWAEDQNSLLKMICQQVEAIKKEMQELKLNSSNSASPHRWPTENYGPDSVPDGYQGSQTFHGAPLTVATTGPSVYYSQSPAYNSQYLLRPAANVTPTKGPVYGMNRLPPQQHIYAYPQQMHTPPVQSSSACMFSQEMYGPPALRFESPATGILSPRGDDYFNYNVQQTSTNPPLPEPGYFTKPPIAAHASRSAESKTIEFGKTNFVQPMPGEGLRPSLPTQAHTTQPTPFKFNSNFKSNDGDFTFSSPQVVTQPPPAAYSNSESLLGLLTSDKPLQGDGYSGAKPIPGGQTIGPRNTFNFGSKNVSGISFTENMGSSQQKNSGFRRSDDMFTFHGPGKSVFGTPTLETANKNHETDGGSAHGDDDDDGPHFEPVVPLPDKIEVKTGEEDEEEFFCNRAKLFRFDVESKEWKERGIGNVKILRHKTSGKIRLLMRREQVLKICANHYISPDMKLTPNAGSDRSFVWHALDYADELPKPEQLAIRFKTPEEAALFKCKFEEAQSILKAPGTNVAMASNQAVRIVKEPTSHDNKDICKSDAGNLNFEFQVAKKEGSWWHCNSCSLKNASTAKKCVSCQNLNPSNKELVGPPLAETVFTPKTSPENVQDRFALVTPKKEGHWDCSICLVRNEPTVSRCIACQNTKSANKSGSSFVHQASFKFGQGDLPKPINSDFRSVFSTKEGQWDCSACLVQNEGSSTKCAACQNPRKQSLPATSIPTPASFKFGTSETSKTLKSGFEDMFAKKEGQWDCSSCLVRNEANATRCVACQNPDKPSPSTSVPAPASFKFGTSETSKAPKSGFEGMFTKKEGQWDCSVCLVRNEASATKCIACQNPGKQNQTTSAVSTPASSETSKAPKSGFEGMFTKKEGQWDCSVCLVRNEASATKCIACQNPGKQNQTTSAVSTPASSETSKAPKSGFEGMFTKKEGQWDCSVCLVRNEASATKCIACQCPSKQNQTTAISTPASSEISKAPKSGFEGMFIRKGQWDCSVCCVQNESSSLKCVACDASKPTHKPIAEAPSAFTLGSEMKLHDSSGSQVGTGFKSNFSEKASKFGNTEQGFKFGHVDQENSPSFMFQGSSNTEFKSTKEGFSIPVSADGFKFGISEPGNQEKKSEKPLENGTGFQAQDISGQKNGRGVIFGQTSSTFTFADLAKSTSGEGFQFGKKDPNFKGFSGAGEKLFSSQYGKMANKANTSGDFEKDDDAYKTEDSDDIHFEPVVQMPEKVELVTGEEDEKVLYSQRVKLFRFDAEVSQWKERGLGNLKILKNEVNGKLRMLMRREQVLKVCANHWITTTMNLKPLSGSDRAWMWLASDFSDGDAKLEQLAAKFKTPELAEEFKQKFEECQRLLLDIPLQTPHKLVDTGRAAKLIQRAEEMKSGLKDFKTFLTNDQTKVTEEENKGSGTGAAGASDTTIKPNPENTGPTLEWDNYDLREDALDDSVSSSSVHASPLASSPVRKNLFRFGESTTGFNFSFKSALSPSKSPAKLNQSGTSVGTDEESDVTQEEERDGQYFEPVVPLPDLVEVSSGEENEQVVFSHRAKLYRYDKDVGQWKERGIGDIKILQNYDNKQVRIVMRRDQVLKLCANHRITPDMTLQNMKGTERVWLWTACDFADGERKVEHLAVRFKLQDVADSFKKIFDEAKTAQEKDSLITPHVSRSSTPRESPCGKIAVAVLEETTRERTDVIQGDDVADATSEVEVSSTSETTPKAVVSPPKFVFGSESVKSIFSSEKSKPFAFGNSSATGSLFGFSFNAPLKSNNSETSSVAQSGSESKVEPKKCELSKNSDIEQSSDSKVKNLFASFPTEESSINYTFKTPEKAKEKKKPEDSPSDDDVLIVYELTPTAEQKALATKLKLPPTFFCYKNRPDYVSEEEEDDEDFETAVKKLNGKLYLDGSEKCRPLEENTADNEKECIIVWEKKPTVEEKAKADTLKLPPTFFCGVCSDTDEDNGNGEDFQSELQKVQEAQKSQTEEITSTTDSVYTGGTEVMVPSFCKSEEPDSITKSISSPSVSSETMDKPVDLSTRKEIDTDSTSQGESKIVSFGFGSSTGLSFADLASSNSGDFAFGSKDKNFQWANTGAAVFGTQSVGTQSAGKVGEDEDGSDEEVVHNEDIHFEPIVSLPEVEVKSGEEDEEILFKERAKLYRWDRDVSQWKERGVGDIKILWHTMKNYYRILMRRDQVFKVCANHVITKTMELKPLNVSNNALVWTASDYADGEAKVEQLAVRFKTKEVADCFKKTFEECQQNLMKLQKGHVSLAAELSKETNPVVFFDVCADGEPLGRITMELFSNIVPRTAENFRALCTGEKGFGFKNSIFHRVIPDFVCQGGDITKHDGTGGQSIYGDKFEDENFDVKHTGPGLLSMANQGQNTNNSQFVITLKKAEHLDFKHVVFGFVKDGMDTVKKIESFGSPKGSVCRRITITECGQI
UniProt Q5T160, 295-315: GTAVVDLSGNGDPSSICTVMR
UniProt Q96DM3: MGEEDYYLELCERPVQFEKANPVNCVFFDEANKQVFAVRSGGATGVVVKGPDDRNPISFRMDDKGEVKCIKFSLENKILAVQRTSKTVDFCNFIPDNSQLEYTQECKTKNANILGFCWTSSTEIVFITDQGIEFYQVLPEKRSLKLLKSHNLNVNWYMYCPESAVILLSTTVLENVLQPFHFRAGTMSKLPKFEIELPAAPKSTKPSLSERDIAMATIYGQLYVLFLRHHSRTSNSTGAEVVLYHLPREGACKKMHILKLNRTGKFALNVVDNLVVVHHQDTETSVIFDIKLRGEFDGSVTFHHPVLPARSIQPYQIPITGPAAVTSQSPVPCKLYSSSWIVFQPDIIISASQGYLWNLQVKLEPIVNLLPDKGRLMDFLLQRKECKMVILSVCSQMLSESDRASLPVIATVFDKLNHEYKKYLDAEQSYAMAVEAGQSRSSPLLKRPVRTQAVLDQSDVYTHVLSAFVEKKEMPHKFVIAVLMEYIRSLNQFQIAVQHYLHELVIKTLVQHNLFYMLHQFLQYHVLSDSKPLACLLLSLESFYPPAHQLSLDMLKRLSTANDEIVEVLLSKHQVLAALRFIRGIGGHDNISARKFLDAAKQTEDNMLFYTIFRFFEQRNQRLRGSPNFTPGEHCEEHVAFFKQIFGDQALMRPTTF
UniProt Q06330: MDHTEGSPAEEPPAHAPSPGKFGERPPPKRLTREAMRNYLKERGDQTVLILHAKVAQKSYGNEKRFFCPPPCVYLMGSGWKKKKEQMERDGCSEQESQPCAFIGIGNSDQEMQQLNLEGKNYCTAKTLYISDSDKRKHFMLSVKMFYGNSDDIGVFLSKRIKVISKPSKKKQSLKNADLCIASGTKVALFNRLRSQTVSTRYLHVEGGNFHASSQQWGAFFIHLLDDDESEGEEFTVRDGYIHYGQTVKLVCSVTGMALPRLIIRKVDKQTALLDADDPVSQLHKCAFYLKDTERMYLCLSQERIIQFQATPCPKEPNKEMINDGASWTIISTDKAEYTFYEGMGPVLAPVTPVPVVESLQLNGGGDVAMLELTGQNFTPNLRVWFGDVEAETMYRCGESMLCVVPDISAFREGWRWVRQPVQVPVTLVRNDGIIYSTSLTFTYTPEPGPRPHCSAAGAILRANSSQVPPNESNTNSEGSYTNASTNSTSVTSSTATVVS
UniProt Q9BWF3: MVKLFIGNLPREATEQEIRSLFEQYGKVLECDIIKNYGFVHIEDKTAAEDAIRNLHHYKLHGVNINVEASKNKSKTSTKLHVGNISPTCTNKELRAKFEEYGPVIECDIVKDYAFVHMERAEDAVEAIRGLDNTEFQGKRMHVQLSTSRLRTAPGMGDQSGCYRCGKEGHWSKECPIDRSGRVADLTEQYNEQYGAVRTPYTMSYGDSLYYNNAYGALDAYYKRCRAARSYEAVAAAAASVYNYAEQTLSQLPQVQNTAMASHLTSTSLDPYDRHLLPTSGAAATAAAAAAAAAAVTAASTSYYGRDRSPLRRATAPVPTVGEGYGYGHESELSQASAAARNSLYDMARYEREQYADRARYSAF
UniProt Q96S59, 587-606: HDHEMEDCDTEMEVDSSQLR
UniProt Q9HBH0: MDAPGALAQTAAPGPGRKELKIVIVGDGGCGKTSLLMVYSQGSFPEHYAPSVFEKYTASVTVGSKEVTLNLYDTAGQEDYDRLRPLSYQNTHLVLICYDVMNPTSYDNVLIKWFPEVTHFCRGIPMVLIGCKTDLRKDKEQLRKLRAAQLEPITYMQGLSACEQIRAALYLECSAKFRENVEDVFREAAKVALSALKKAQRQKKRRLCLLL
UniProt Q8IXI2: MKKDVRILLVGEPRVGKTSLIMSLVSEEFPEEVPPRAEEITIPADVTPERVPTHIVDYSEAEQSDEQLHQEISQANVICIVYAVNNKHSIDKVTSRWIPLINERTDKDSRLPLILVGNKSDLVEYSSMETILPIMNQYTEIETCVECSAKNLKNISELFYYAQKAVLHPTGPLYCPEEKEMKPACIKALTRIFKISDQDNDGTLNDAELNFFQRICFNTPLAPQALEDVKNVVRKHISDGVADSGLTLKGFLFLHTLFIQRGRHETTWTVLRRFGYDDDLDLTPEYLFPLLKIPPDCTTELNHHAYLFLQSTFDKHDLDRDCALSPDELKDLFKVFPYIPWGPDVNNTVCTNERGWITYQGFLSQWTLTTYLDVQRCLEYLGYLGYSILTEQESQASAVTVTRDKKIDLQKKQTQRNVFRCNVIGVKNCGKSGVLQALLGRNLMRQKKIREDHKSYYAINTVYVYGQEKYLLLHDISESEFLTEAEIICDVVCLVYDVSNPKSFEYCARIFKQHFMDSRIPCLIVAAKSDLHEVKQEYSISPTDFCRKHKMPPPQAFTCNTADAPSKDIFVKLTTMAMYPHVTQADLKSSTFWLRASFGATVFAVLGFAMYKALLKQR
UniProt P35249, whole entry, looked up: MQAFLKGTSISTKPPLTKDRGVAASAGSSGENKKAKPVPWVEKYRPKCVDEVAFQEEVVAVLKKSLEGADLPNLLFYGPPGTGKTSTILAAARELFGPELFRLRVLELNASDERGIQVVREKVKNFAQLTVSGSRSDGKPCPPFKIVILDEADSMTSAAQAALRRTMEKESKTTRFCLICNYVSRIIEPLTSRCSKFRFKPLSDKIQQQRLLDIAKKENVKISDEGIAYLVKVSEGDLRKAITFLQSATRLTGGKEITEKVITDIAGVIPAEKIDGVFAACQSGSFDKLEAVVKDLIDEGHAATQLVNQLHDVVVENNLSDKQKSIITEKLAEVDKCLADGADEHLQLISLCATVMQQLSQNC
UniProt P48382: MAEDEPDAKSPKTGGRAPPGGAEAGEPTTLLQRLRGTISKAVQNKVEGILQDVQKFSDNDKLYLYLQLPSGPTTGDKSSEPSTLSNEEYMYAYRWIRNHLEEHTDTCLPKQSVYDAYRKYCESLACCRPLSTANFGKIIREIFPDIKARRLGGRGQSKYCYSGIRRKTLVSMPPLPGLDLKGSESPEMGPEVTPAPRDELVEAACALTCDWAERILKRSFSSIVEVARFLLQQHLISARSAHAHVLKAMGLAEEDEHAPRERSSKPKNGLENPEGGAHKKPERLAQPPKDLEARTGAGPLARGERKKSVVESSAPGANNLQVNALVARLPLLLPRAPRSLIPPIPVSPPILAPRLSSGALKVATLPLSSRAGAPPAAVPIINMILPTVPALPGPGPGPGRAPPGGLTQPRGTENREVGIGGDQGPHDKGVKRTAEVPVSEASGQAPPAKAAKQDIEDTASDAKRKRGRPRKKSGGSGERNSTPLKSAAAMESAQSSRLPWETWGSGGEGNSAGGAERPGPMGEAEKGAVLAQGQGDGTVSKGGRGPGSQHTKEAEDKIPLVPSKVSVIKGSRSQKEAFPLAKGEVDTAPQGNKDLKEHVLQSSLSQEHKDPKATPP

Compound: ClCC(=O)N[C@H]1CCCc2ccccc12
Assay: log2 mean competition ratio of IA-DTB cysteine labelling (DMSO/compound) (log2 ratio); higher = stronger cysteine engagement by compound
Conditions: 50 µM; treatment time: 4 h; cell line lysate: HEK293T
Protocol: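 IA-DTB competitive cysteine chemoproteomics in HEK293T RIPA lysate. Lysates were treated with compound 29 or 30 at 50 or 200 µM for 4 h, then IA-DTB (500 µM, 1 h), trypsin-digested, NeutrAvidin-enriched and analysed by diaPASEF. Competition ratio = intensity DMSO / intensity compound (n=4 treated, n=64 DMSO); binding: mean log2 CR ≥ 1 and p ≤ 0.05 plus QC filters. Target is the cysteine site.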

Row | Target | log2 mean competition ratio
1 | RANBP2 C3122 (UniProt P49792) | -0.459
2 | RANBP2 C2710 (UniProt P49792) | -0.0538
3 | RASA1 C906 (UniProt P20936) | -0.0304
4 | RANBP2 C815 (UniProt P49792) | 0.102
5 | RECQL5 C427 (UniProt O94762) | 0.0836
6 | RARS2 C311 (UniProt Q5T160) | -0.0774
7 | RMC1 C11 (UniProt Q96DM3) | -0.447
8 | RBPJ C180 (UniProt Q06330) | -0.0912
9 | RIPK2 C324 (UniProt O43353) | -0.0604
10 | RBM27 C49 (UniProt Q9P2N5) | 0.325
11 | RAF1 C588 (UniProt P04049) | -0.244
12 | RBM4 C31 (UniProt Q9BWF3) | 0.923
13 | RARA C148 | 0.0251
14 | RELCH C605 (UniProt Q9P260) | -0.459
15 | RARS2 C74 (UniProt Q5T160) | 0.0519
16 | RANBP9 C594 (UniProt Q96S59) | 0.182
17 | RHOF C30 (UniProt Q9HBH0) | 0.178
18 | RIC1 C415 (UniProt Q4ADV7) | 1.53
19 | RARA C444 | -0.084
20 | RB1 C278 (UniProt P06400) | 0.723
21 | RCL1 C171 | 0.138
22 | RBM4 C89 (UniProt Q9BWF3) | 0.164
23 | RARS1 C502 | 0.0983
24 | RHOT1 C175 (UniProt Q8IXI2) | -0.129
25 | RFC4 C141 (UniProt P35249) | -0.103
26 | RCC2 C144 (UniProt Q9P258) | 0.148
27 | RHOF C173 (UniProt Q9HBH0) | 0.217
28 | RFX5 C107 (UniProt P48382) | -0.21
29 | RBBP7 C97 | -0.204

Quoted from the listing.
log2 mean competition ratio, RHOF C173 (UniProt Q9HBH0) reads 0.217
log2 mean competition ratio, RBPJ C180 (UniProt Q06330) reads -0.0912
